PubChem BioAssay AID743121 | NCATS, 2013

Aim: 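Partners whose loss is lethal together with topoisomerase I blockade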 (primary screen)
Cell system: MDA-MB-231 cells, a human breast cancer line
Reagent: single siRNA against human genes, 20 nM siRNA (0.8 pmol per well)
Duration: 120 h (drug added 48 h after transfection, read 72 h later)
Conditions: camptothecin 20 nM (about EC30) for 72 h; vehicle 0.1% DMSO in parallel plates
Measurement: 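Cell viability by ATP luminescence (CellTiter-Glo) as % of non-targeting siRNA wells, and the log2 ratio of viability without drug over viability with camptothecin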
Scale: log2 vehicle/camptothecin viability: higher = stronger sensitisation to camptothecin; viability with camptothecin and viability without drug: higher = more viable cells
Hit rule: 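Active genes have an RSA gene-level p-value below 0.001, computed from the ratios of their separate siRNAs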
Here is an unselected part of about 26,000 reagents. In the full data, 167 (0.63%) are marked active. 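Calls are per gene from RSA p-values that are not deposited; an individual active-marked siRNA can sensitise only weakly.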

gene	PubChem SID	log2 vehicle/camptothecin viability	viability with camptothecin (% of control)	viability without drug (% of control)	Outcome
MIP (GeneID 4284)	SID164375588	-0.0567	91.5	88	inactive
MIP (GeneID 4284)	SID164375590	-0.0985	101	94.3	inactive
MIP (GeneID 4284)	SID164375591	0.0677	96.6	101	inactive
MIP (GeneID 4284)	SID164375592	0.0543	67	69.5	inactive
PTGFR (GeneID 5737)	SID164383687	-0.214	32	27.6	inactive
PTGFR (GeneID 5737)	SID164383688	0.0715	55	57.8	inactive
PTGFR (GeneID 5737)	SID164383691	-0.188	39.4	34.6	inactive
PTGFR (GeneID 5737)	SID164383693	-0.147	118	106	inactive
SLC7A11 (GeneID 23657)	SID164449378	0.0874	47.5	50.5	inactive
SLC7A11 (GeneID 23657)	SID164449379	0.262	85.1	102	inactive
SLC7A11 (GeneID 23657)	SID164449381	-0.119	105	96.6	inactive
CYP2D7 (GeneID 1564)	SID164360755	-0.0848	94.7	89.3	inactive
CYP2D7 (GeneID 1564)	SID164360757	-0.196	119	104	inactive
CYP2D7 (GeneID 1564)	SID164360758	0.153	96	107	inactive
CYP2D7 (GeneID 1564)	SID164360761	-0.244	71.7	60.5	inactive
CYP2D7 (GeneID 1564)	SID164360766	-0.674	98.1	61.5	inactive
CD34 (GeneID 947)	SID164357233	0.485	64.7	90.5	inactive
CD34 (GeneID 947)	SID164357234	-0.391	104	79.5	inactive
CD34 (GeneID 947)	SID164357235	0.809	44.4	77.7	inactive
CD34 (GeneID 947)	SID164357236	-0.0111	72.7	72.2	inactive
PON2 (GeneID 5445)	SID164381739	-0.0688	95.6	91.2	inactive
PON2 (GeneID 5445)	SID164381740	-0.0384	74.6	72.7	inactive
PON2 (GeneID 5445)	SID164381741	-0.528	74.1	51.4	inactive
PON2 (GeneID 5445)	SID164381742	-0.114	98	90.5	inactive
PCDH17 (GeneID 27253)	SID164463233	0.352	65.7	83.9	inactive
PCDH17 (GeneID 27253)	SID164463234	0.0262	96.2	98	inactive
PCDH17 (GeneID 27253)	SID164463238	0.049	51.9	53.7	inactive
PCDH17 (GeneID 27253)	SID164463239	-0.28	105	86.2	inactive
CLIC4 (GeneID 25932)	SID164457838	0.122	97.5	106	inactive
CLIC4 (GeneID 25932)	SID164457839	-0.468	79	57.1	inactive
CLIC4 (GeneID 25932)	SID164457840	-0.031	120	118	inactive
CLIC4 (GeneID 25932)	SID164457842	-0.396	65	49.4	inactive
TYMP (GeneID 1890)	SID164362536	-0.423	94	70.1	inactive
TYMP (GeneID 1890)	SID164362538	-0.364	85.7	66.6	inactive
TYMP (GeneID 1890)	SID164362539	-0.189	55.4	48.6	inactive
FHL5 (GeneID 9457)	SID164403899	-0.0617	114	110	inactive
FHL5 (GeneID 9457)	SID164403902	0.0681	69.4	72.8	inactive
FHL5 (GeneID 9457)	SID164403903	0.0794	75.5	79.8	inactive
FHL5 (GeneID 9457)	SID164403904	-0.486	84.3	60.2	inactive
ATP6V1A (GeneID 523)	SID164354741	-0.598	15	9.92	inactive
ATP6V1A (GeneID 523)	SID164354744	-0.427	64.6	48	inactive
ATP6V1A (GeneID 523)	SID164354745	-0.0512	63.1	60.9	inactive
UBA7 (GeneID 7318)	SID164393147	-0.0829	99.3	93.7	inactive
UBA7 (GeneID 7318)	SID164393149	0.0154	29.9	30.3	inactive
UBA7 (GeneID 7318)	SID164393150	0.0541	110	114	inactive
CNTRL (GeneID 11064)	SID164415309	-0.159	64.7	58	inactive
CNTRL (GeneID 11064)	SID164415312	-0.089	115	108	inactive
CNTRL (GeneID 11064)	SID164415313	-0.427	80.5	59.9	inactive
CNTRL (GeneID 11064)	SID164415318	-0.0221	89.2	87.8	inactive

3 of these entries in another layout:
TYMP (GeneID 1890) [SID164362536] → log2 vehicle/camptothecin viability: -0.423; viability with camptothecin (% of control): 94; viability without drug (% of control): 70.1; Outcome: inactive
TYMP (GeneID 1890) [SID164362538] → log2 vehicle/camptothecin viability: -0.364; viability with camptothecin (% of control): 85.7; viability without drug (% of control): 66.6; Outcome: inactive
TYMP (GeneID 1890) [SID164362539] → log2 vehicle/camptothecin viability: -0.189; viability with camptothecin (% of control): 55.4; viability without drug (% of control): 48.6; Outcome: inactive
